PubChem BioAssay AID274 (DTP/NCI, 2004)
The list does not hold the whole screen: it gathers tests that were run many times, whatever their T/C, doses with no T/C, and many T/C values between a quarter and a half above the control. Further doses and runs are listed elsewhere. T/C: endpoint of the treated group in % of that of the vehicle group. Some doses have a count of surviving animals in place of a T/C: the source files T/C as zero there, which appears to mark a toxic dose or a test without result, not a measured value. Some survivor counts are full or nearly so, which does not show that the dose was tolerated: survival well below the control is almost never listed, so the zero probably covers shortened survival too. Counts of survivors are from the toxicity check (mostly the fifth day) where no day follows; animals may have died later. Schedule codes are those of the source, read here as Q, the interval in days (D) or hours (H), X, the number of doses. Some doses were run more than once; their values stand side by side, smallest first. For survival time, the PubChem record calls one and a half times the control and up active, and a quarter to a half above the control has no call in these data; cut-offs in other NCI protocols can differ. Some T/C values are followed by the survivors on the day toxicity was checked, most often the fifth; where none is given, no animal had died by that day.

Tested on: BDF1 mice, Lewis lung carcinoma iv, survival T/C
Test: NCI In Vivo Anticancer Drug Screen. Data for tumor model Lewis Lung Carcinoma (intravenous) in B6D2F1 (BDF1) mice
Conditions: T/C endpoint: median survival time, higher T/C = longer survival
Experimental: The antitumor activity of compounds was measured in mice bearing transplantable tumors. Survival or tumor size were measured and the results are expressed as the measurement made in the treated group (T) divided by the measurement made in the vehicle treated control group (C). The tumor model used in this assay is Lewis Lung Carcinoma (intravenous) in B6D2F1 (BDF1) mice

[1] = dose: 200.0 mg/kg/injection, schedule: Q01DX009 (ip), vehicle: saline
[2] = dose: 400.0 mg/kg/injection, schedule: Q01DX009 (ip), vehicle: saline
[3] = dose: 10.0 mg/kg/injection, schedule: Q01DX009 (ip), vehicle: Klucel (hydroxypropylcellulose) (HPC)
[4] = dose: 50.0 mg/kg/injection, schedule: Q01DX009 (ip), vehicle: Klucel (hydroxypropylcellulose) (HPC)
[5] = dose: 100.0 mg/kg/injection, schedule: Q01DX009 (ip), vehicle: Klucel (hydroxypropylcellulose) (HPC)
[6] = dose: 200.0 mg/kg/injection, schedule: Q01DX009 (ip), vehicle: Klucel (hydroxypropylcellulose) (HPC)
[7] = dose: 25.0 mg/kg/injection, schedule: Q01DX009 (ip), vehicle: saline with Tween-80
[8] = dose: 50.0 mg/kg/injection, schedule: Q01DX009 (ip), vehicle: saline
[9] = dose: 100.0 mg/kg/injection, schedule: Q01DX009 (ip), vehicle: saline
[10] = dose: 400.0 mg/kg/injection, schedule: Q01DX009 (ip), vehicle: saline with Tween-80
[11] = dose: 400.0 mg/kg/injection, schedule: Q01DX009 (ip), vehicle: Klucel (hydroxypropylcellulose) (HPC)

COc1cccc2c1C(=O)c1c(O)c3c(c(O)c1C2=O)C[C@@](O)(/C(C)=N\O)C[C@@H]3OC1CC(N)C(O)C(C)O1 (stereo partly specified)
survivor count (dose: 25.0 mg/kg/injection, schedule: Q01DX009 (ip), vehicle: water): 10 of 10
survivor count (dose: 50.0 mg/kg/injection, schedule: Q01DX009 (ip), vehicle: water): 7 of 10

C=CC(=O)NCNC(=O)C=C
survivor count [1]: 0 of 10 and 6 of 10
survivor count [2]: 0 of 10

CC(=O)O[C@@H]1C(=O)C=C(C)[C@@H]2[C@@H](OC(=O)C=C(C)C)[C@H]3OC(=O)C[C@H]4[C@@H](C)[C@@H](O)[C@]5(O)OC[C@]34[C@H]5[C@@]12C
T/C (dose: 2.0 mg/kg/injection, schedule: Q01DX009 (ip), vehicle: saline): 127 % of control

O=C1C=CC(=O)O1 (tested in a mixture with another compound)
survivor count [2]: 4 of 10

CC[C@]1(O)C[C@H]2CN(CCc3c([nH]c4ccccc34)[C@@](C(=O)OC)(c3cc4c(cc3OC)N(C=O)[C@H]3[C@@](O)(C(=O)OC)[C@H](OC(C)=O)[C@]5(CC)C=CCN6CC[C@]43[C@@H]65)C2)C1
survivor count (dose: 1.67 mg/kg/injection, schedule: Q04DX003 (ip), vehicle: saline): 8 of 8
survivor count (dose: 2.78 mg/kg/injection, schedule: Q04DX003 (ip), vehicle: saline): 8 of 8
survivor count (dose: 360.0 micrograms/kg/injection, schedule: Q01DX009 (ip), vehicle: saline): 8 of 8
survivor count (dose: 600.0 micrograms/kg/injection, schedule: Q01DX009 (ip), vehicle: saline): 7 of 8
survivor count (dose: 1000.0 micrograms/kg/injection, schedule: Q01DX009 (ip), vehicle: saline): 7 of 8

CC1CCC2(OC1)OC1CC3C4CCC5CC(O)CCC5(C)C4CCC3(C)C1C2C (stereo unspecified)
survivor count [3]: 10 of 10
survivor count (dose: 40.0 mg/kg/injection, schedule: Q01DX009 (ip), vehicle: Klucel (hydroxypropylcellulose) (HPC)): 10 of 10

CCC/C=C/C=C/C(=O)OC1/C(=C/C(=O)OC)CC2CC(C(C)O)OC(=O)CC(O)CC3CC(OC(C)=O)C(C)(C)C(O)(CC4C/C(=C/C(=O)OC)CC(/C=C/C(C)(C)C1(O)O2)O4)O3 (stereo unspecified)
survivor count (dose: 150.0 micrograms/kg/injection, schedule: Q01DX009 (ip), vehicle: saline + alcohol): 8 of 10
survivor count (dose: 300.0 micrograms/kg/injection, schedule: Q01DX009 (ip), vehicle: saline + alcohol): 4 of 10

COc1ccc2[nH]c3ccc4cc[n+](CCN5CCC(C6CCN(CC[n+]7ccc8ccc9[nH]c%10ccc(OC)cc%10c9c8c7)CC6)CC5)cc4c3c2c1
T/C [4]: 143 % of control
survivor count [5]: 10 of 10
survivor count [6]: 10 of 10

O=C(NCCCN1CC1)C(=O)NCCCN1CC1
survivor count (dose: 6.0 mg/kg/injection, schedule: Q01DX009 (ip), vehicle: saline): 10 of 10
survivor count (dose: 12.0 mg/kg/injection, schedule: Q01DX009 (ip), vehicle: saline): 8 of 10

NC(N)=NC(N)=Nc1ccc(-c2ccc(N=C(N)N=C(N)N)cc2)cc1
survivor count [7]: 5 of 10

O=C(C1CO1)C(Cl)(Cl)Cl (stereo unspecified)
survivor count [8]: 5 of 10
survivor count [9]: 0 of 10

Cc1cn(C2CC(O)C(CO)O2)c(=O)[nH]c1=O (stereo unspecified)
T/C [7]: 147 % of control
survivor count [10]: 10 of 10

COc1cc(NCCCCCCCNC(C)C)c2nccc(C)c2c1
survivor count [8]: 6 of 10

COc1cc2c(c(OC)c1O)-c1ccc(OC)c(=O)cc1[C@@H](NC(=O)C(F)(F)F)CC2
survivor count (dose: 5.0 mg/kg/injection, schedule: Q01DX009 (ip), vehicle: Klucel (hydroxypropylcellulose) (HPC)): 7 of 10
survivor count [3]: 4 of 10

O=NN(CCCl)C(=O)NC1CCCCC1
T/C (dose: 12.0 mg/kg/injection, schedule: Q01DX001 (ip), vehicle: saline + alcohol): 103, 103 [7 of 8 alive], 111, 237 % of control
T/C (dose: 18.0 mg/kg/injection, schedule: Q01DX001 (ip), vehicle: saline + alcohol): 101, 103, 121, 166 % of control
T/C (dose: 27.0 mg/kg/injection, schedule: Q01DX001 (ip), vehicle: saline + alcohol): 109, 118, 125, 197 % of control
T/C (dose: 40.0 mg/kg/injection, schedule: Q01DX001 (ip), vehicle: saline + alcohol): 115, 116, 131, 236 % of control
T/C (dose: 60.0 mg/kg/injection, schedule: Q01DX001 (ip), vehicle: saline + alcohol): 102, 113, 126, 131 % of control

COC(=O)c1[nH]c(=O)[nH]c(=O)c1F
survivor count (dose: 50.0 mg/kg/injection, schedule: Q01DX009 (ip), vehicle: saline with Tween-80): 10 of 10
survivor count (dose: 100.0 mg/kg/injection, schedule: Q01DX009 (ip), vehicle: saline with Tween-80): 7 of 10
survivor count (dose: 200.0 mg/kg/injection, schedule: Q01DX009 (ip), vehicle: saline with Tween-80): 9 of 10

CC1CCC(n2cnc3c(Cl)ncnc32)O1 (stereo unspecified)
survivor count [11]: 5 of 10

Cc1ccc(C2NC(=O)c3ccccc3N2)s1 (stereo unspecified)
survivor count (dose: 25.0 mg/kg/injection, schedule: Q01DX009 (ip), vehicle: Klucel (hydroxypropylcellulose) (HPC)): 10 of 10
survivor count [4]: 10 of 10
survivor count [5]: 10 of 10
survivor count [6]: 10 of 10
survivor count [11]: 10 of 10

Cc1ccc(Cl)c2ccccc12
survivor count [10]: 7 of 10

[N-]=[N+]=CC(=O)CCC(=O)C=[N+]=[N-]
survivor count (dose: 3.12 mg/kg/injection, schedule: Q01DX009 (ip), vehicle: DMSO): 10 of 10
survivor count (dose: 6.25 mg/kg/injection, schedule: Q01DX009 (ip), vehicle: DMSO): 10 of 10
survivor count (dose: 12.5 mg/kg/injection, schedule: Q01DX009 (ip), vehicle: DMSO): 10 of 10
survivor count (dose: 25.0 mg/kg/injection, schedule: Q01DX009 (ip), vehicle: DMSO): 9 of 10

O=C(O)CC(NC(=O)CP(=O)(O)O)C(=O)O (stereo unspecified)
T/C (dose: 240.0 mg/kg/injection, schedule: Q04DX003 (ip), vehicle: saline): 135 % of control
T/C (dose: 343.0 mg/kg/injection, schedule: Q04DX003 (ip), vehicle: saline): 148 % of control
survivor count (dose: 1000.0 mg/kg/injection, schedule: Q04DX003 (ip), vehicle: saline): 8 of 8

CCC1OCCN1C(C)C (stereo unspecified)
survivor count [9]: 10 of 10

Cc1c(N)nc([C@H](CC(N)=O)NC[C@H](N)C(N)=O)nc1C(=O)N[C@H](C(=O)N[C@H](C)[C@@H](O)[C@H](C)C(=O)N[C@H](C(=O)NCCc1nc(-c2nc(C(=O)NCCC[S+](C)C)cs2)cs1)[C@@H](C)O)C(OC1OC(CO)C(O)C(O)C1OC1OC(CO)C(O)C(OC(N)=O)C1O)c1cnc[nH]1 (stereo partly specified)
T/C (dose: 8.0 mg/kg/injection, schedule: Q01DX009 (ip), vehicle: saline): 128 % of control
survivor count (dose: 12.0 mg/kg/injection, schedule: Q04DX003 (ip), vehicle: saline): 5 of 8
T/C (dose: 16.0 mg/kg/injection, schedule: Q01DX009 (ip), vehicle: saline): 140 % of control
T/C (dose: 27.0 mg/kg/injection, schedule: Q04DX003 (ip), vehicle: saline): 125 % of control
survivor count (dose: 32.0 mg/kg/injection, schedule: Q01DX009 (ip), vehicle: saline): 10 of 10
T/C (dose: 40.0 mg/kg/injection, schedule: Q04DX003 (ip), vehicle: saline): 134 % of control
survivor count (dose: 60.0 mg/kg/injection, schedule: Q04DX003 (ip), vehicle: saline): 6 of 8
survivor count (dose: 64.0 mg/kg/injection, schedule: Q01DX009 (ip), vehicle: saline): 10 of 10

Cc1cc(N(CCOS(C)(=O)=O)CCOS(C)(=O)=O)ccc1C=Nc1ccc(-c2nc(Cc3ccccc3)sc2C)cc1
T/C (dose: 12.5 mg/kg/injection, schedule: Q01DX009 (ip), vehicle: Klucel (hydroxypropylcellulose) (HPC)): 136 % of control
survivor count [5]: 9 of 10
survivor count [6]: 9 of 10
survivor count [11]: 10 of 10

O=C1C=CC(n2cc(F)c(=O)[nH]c2=O)O1 (stereo unspecified)
survivor count [9]: 8 of 10

CC(CNC(=O)CCOS(C)(=O)=O)NC(=O)CCOS(C)(=O)=O (stereo unspecified)
T/C [1]: 132 % of control
survivor count [2]: 10 of 10
